The supplement of paper PMC11006884
Shown are results outside the selection of targets with a hit, which stands elsewhere. The data scatter; read single values as rough. The entries are a selection whose mix differs from that of the whole data set.

Chains of the proteins cited; added tags and fusions are not shown. Lines headed by an entry give the natural chain unless they say otherwise; changes in a name come on top.
UniProt P49459, whole entry, looked up: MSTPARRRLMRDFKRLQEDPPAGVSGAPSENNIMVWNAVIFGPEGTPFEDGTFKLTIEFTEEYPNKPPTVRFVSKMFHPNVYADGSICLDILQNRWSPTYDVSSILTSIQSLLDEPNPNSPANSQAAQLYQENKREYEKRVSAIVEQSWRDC
UniProt P49368: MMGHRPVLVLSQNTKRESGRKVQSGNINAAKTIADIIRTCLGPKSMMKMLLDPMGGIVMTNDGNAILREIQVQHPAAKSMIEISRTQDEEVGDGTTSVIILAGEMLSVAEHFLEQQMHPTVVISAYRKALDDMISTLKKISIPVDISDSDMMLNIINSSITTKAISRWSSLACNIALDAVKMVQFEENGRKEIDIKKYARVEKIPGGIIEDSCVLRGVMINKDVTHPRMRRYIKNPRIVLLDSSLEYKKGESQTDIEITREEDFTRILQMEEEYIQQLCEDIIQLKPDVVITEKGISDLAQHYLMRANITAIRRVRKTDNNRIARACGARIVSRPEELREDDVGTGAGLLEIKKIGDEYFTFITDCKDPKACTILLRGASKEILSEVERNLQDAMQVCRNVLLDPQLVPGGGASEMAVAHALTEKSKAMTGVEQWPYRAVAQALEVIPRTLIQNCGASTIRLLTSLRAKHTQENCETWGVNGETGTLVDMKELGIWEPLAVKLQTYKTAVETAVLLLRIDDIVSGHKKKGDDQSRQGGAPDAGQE
UniProt P50548: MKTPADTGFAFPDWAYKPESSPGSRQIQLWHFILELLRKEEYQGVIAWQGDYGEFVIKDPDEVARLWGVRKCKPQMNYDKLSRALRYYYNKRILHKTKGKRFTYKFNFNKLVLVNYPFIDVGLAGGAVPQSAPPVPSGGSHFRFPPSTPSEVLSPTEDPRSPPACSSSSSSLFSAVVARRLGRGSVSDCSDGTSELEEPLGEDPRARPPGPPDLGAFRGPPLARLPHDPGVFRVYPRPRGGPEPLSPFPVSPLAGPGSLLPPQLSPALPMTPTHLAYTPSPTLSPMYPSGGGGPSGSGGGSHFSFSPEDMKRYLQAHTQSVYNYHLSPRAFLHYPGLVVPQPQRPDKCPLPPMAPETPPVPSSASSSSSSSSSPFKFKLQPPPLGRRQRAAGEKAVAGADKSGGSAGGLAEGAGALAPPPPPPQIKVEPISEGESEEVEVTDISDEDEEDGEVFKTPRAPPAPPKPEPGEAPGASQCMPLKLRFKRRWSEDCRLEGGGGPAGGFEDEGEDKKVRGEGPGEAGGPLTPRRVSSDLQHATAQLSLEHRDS
UniProt P50570: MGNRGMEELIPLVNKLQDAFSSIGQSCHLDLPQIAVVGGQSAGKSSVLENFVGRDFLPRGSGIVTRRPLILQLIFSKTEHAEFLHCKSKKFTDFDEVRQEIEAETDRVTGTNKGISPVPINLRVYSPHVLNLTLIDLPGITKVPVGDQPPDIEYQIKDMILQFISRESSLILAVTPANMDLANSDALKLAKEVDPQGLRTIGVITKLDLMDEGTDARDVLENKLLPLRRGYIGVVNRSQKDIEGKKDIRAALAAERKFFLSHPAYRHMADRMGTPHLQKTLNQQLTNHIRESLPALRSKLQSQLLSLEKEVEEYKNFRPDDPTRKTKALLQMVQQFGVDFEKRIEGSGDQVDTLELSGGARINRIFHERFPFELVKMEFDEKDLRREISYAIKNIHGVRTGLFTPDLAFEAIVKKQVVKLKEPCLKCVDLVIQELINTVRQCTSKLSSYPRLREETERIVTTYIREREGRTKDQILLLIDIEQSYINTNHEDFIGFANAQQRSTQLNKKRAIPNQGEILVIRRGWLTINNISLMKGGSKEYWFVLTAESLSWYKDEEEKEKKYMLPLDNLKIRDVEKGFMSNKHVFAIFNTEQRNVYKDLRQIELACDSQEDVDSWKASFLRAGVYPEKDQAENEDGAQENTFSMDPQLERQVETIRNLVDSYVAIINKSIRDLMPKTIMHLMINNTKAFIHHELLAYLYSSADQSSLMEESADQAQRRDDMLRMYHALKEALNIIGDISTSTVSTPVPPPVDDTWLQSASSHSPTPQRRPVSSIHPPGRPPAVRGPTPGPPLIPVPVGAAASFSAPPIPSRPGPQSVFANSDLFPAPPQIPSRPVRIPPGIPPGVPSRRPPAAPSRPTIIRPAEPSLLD
UniProt P46109: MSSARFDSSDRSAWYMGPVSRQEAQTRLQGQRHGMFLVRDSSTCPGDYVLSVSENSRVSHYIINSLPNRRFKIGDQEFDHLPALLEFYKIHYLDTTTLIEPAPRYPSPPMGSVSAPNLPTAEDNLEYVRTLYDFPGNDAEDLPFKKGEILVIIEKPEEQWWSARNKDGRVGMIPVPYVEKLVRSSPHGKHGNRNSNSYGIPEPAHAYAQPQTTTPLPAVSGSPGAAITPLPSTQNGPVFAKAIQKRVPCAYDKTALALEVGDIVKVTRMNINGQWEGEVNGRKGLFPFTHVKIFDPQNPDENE
UniProt P49790, whole entry, looked up: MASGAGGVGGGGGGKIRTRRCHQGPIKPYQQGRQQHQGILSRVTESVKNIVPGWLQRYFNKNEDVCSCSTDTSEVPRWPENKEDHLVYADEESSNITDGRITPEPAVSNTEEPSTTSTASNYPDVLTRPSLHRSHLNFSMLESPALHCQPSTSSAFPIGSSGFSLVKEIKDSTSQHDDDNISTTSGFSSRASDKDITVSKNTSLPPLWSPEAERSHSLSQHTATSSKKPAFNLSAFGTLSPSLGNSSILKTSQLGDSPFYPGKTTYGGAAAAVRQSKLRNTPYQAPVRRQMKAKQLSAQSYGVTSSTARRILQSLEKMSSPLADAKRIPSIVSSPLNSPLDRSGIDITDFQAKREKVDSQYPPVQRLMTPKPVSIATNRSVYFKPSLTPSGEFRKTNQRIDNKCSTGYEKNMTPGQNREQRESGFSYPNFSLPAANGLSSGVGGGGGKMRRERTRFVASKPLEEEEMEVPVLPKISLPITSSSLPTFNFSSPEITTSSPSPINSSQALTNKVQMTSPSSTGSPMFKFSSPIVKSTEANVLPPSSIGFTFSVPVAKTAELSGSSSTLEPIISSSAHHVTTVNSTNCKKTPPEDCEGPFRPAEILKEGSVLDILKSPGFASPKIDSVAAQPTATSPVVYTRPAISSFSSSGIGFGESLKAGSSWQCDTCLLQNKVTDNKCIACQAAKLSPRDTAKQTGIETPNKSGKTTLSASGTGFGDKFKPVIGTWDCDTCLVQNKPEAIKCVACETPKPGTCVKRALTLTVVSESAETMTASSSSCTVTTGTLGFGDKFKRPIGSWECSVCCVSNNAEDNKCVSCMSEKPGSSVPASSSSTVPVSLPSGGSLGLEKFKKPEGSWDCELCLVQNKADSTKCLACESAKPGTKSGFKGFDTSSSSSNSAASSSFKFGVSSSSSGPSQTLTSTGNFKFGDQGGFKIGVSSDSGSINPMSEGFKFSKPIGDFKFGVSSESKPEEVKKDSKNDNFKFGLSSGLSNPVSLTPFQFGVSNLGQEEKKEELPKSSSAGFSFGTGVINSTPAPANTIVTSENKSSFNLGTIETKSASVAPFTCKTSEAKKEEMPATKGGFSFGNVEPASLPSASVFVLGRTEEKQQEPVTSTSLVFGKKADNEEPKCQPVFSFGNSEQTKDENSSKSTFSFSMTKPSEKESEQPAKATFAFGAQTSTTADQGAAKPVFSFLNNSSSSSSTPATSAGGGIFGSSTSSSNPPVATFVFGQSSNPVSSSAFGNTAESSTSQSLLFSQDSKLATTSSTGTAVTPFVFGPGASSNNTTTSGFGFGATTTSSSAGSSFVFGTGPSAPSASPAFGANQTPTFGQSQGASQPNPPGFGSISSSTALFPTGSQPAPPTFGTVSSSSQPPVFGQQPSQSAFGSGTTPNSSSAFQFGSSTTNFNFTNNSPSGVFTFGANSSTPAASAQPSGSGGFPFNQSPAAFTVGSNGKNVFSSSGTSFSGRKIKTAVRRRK
UniProt P51610: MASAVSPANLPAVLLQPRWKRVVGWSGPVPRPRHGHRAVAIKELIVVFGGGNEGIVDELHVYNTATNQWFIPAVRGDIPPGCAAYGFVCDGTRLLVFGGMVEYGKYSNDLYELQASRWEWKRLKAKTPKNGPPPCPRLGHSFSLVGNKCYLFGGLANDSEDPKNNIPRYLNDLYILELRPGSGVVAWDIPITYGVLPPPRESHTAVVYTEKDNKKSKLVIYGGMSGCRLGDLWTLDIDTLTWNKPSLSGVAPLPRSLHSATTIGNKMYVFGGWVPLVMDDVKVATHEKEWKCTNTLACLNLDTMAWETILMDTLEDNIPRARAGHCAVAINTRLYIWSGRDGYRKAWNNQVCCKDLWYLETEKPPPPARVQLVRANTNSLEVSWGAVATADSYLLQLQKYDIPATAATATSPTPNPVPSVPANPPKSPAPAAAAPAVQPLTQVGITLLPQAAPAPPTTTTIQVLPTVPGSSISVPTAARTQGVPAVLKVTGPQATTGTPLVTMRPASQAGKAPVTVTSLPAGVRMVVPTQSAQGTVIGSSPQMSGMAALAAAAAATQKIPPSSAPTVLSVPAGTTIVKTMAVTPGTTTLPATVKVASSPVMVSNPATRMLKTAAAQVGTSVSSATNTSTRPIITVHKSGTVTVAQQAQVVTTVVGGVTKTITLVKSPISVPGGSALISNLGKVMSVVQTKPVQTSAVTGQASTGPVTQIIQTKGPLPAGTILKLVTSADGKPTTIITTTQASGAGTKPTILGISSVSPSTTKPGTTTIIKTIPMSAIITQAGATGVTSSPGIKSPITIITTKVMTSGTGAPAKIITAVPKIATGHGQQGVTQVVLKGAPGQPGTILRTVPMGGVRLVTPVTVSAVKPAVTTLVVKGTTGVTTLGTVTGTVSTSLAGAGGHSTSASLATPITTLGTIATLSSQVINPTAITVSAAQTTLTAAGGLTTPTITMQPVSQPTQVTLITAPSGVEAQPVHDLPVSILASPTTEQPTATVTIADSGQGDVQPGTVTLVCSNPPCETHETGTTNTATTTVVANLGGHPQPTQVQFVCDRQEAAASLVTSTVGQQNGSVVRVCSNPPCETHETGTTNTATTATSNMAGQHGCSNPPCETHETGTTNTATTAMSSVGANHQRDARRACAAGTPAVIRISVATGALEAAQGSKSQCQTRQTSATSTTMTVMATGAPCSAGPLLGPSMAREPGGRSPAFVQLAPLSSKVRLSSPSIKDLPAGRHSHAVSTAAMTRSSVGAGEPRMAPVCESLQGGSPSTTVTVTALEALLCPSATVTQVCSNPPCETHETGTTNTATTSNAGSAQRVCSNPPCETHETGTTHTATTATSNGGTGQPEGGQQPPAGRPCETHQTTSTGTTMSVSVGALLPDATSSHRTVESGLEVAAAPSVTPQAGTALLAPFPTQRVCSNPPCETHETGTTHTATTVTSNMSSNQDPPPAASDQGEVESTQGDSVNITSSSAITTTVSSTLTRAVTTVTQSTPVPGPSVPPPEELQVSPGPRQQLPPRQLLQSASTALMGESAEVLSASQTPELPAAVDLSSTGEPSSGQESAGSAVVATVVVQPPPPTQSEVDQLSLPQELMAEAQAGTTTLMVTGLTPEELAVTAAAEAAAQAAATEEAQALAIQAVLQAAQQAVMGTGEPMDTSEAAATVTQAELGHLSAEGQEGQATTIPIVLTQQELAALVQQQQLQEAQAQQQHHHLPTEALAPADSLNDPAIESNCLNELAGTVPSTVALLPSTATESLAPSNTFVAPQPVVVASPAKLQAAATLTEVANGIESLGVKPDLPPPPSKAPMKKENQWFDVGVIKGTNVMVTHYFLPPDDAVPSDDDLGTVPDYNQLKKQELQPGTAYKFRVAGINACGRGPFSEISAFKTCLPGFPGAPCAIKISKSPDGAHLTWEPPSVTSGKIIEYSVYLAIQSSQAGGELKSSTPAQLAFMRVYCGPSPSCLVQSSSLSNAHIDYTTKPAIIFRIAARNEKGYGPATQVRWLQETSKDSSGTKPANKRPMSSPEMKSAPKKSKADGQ
UniProt P49591: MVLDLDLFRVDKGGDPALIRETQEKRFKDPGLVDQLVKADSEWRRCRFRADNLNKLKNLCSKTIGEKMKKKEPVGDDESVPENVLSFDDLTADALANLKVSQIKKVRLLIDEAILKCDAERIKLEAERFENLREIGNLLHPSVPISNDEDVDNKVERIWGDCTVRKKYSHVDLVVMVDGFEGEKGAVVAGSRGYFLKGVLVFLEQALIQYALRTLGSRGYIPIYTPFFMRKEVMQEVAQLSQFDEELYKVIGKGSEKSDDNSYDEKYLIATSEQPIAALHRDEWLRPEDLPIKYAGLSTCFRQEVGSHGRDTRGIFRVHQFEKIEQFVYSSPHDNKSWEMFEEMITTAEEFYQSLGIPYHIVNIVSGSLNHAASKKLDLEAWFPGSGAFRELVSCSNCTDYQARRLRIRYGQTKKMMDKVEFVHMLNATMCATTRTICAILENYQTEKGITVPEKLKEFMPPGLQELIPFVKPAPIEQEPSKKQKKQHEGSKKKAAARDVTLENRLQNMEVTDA
UniProt P49458: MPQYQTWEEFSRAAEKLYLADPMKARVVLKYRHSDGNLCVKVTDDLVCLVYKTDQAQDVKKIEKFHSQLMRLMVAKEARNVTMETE

Each target was assayed with COC(=O)/C=C/c1ccccc1 [methyl cinnamate] (assay: log2 ratio of iodoacetamide-alkyne labeling of the cysteine site, DMSO over compound (competition); higher = stronger covalent engagement of the cysteine by the compound, active = 1 or more). Conditions: 500 µM; treatment time 1 h; system: HEK293T cell lysate.
Summary of the method: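 For each cysteine, the log2 competition ratio is mean control-channel reporter intensity over mean compound-channel reporter intensity. HEK293T lysate (2 mg/mL) was exposed to vehicle or electrophile (500 µM, 1 h, ambient temperature), labelled with iodoacetamide alkyne (1 h), clicked to sCIP-TMT reagents, digested overnight with trypsin at 37 °C, streptavidin-enriched and analysed by Orbitrap Eclipse LC-MS/MS with FAIMS and FragPipe. Cysteines quantified in only one of three replicates, each with duplicate channels, were excluded.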

log2 ratio of iodoacetamide-alkyne labeling, inactive:
UniProt P49459_C88 -0.163, CCT3 C372 (UniProt P49368) 0.358, ERF C165 (UniProt P50548) 0.242, UTRN C1059 (UniProt P46939) 0.0163, FASN C1459 (UniProt P49327) 0.219, DNM2 C27 (UniProt P50570) 0.0421, CCT3 C173 (UniProt P49368) 0.332, FASN C1127 (UniProt P49327) 0.128, NUMB C611 (UniProt P49757) 0.282, CRKL C44 (UniProt P46109) 0.121, NUP153 C1129 (UniProt P49790) 0.375, RANGAP1 C303 (UniProt P46060) 0.272, HCFC1 C149 (UniProt P51610) 0.203, MKI67 C903 (UniProt P46013) 0.305, MAP1B C2065 (UniProt P46821) 0.35, MKI67 C1373 (UniProt P46013) 0.325, RANBP2 C206 (UniProt P49792) 0.19, UniProt P49591_C300 0.0914, QARS C556 (UniProt P47897) -0.313, SRP9 C48 (UniProt P49458) -0.00062, MAP1B C1814 (UniProt P46821) 0.24, MSH2 C333 (UniProt P43246) 0.0763
